Out of some 580,000 compounds screened, about 6,100 (1.1%) were called active. Inconclusive results, whose numbers are uncertain, are shown with a selection of clear calls. The call rests on the fitted dose curve; in most records, active means well fitted inhibition curve with a large enough effect; inconclusive means small, poorly fitted or top-dose-only effect, or another doubt; inactive means no such curve, though single readings can be large or run the other way. A potency beside an inconclusive call is a rough fit, not a confirmed value.
These compounds were tested against Polyunsaturated fatty acid lipoxygenase ALOX12 (Homo sapiens) (UniProt P18054) (assay: Primary qHTS assay for inhibitors of human arachidonate 12S-lipoxygenase (ALOX12): Round 2). Details: purified 12hLO, xylenol orange hydroperoxide absorbance; activity change, negative = inhibition: at 108 µM (top of the series) unless noted.
Method in brief: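 Hydroperoxide product was detected by ferrous iron/xylenol orange as the 573 to 405 nm absorbance ratio. Arachidonic acid at 40 uM (final) was turned over for 30 min at room temperature by 150 nM human 12hLO, pH 7.0 Hepes buffer, after 15 min compound preincubation.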
On the % scale 0 is the no-effect control and ±100 the full control effect; potency means the concentration at half of the fitted maximal effect.

Protein sequences, listed by entry. Tags and fused reporters are not part of them.
UniProt P18054, whole entry, looked up: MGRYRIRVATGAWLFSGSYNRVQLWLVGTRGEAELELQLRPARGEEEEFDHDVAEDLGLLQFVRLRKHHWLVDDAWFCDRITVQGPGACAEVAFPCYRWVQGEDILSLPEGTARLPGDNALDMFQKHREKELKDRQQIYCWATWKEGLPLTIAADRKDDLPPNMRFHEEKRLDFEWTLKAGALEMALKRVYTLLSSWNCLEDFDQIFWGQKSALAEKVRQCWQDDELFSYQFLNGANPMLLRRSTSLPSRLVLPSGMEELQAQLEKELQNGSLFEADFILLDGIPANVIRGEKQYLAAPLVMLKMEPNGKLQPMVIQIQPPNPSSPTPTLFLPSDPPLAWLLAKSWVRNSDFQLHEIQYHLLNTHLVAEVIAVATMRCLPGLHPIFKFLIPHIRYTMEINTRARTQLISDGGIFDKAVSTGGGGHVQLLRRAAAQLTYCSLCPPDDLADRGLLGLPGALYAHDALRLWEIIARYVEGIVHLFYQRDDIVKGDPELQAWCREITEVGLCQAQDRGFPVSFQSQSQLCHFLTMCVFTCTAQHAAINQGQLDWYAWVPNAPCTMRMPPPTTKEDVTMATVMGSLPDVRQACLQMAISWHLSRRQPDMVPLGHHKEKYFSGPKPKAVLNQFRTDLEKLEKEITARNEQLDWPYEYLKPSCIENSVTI

Row | Structure (SMILES) | Potency | activity change, negative = inhibition
1 | O=C(N1CCC(n2cc(-c3nc(-c4ccccc4)no3)nn2)C1)C1(c2ccccc2)CC1 (configuration not stated) | inconclusive: 70.8 µM [inhibitor, partial curve] | –
2 | CC1=NN(c2ccccc2)C(=O)/C1=C\c1cn(-c2ccccc2)nc1C | – | inactive: 6.3%
3 | COc1ccc(OCCCN2CCCC(C)C2)cc1 (configuration not stated) | inconclusive: 0.631 µM [inhibitor, full curve, poor fit] | –
4 | CN(Cc1cc(C2CC2)n[nH]1)C(=O)c1ccccc1C1CCNC1 (configuration not stated) | inconclusive: 25.1 µM [inhibitor, full curve] | –
5 | Cc1ccc2[nH]c3c(c2c1)CN(C(=O)CN1CCN(c2cccc(C)c2C)CC1)CC3 | active: 39.8 µM | –
6 | CC1CCCCC12NC(=O)N(CC(=O)NC(=O)Nc1ccc3c(c1)OCCO3)C2=O (configuration not stated) | inconclusive: 112 µM [inhibitor, single point] | –
7 | CC(C)CCCC1CN(C(=O)c2cn(C3CCC(N)CC3)nn2)CCO1 (configuration not stated) | inconclusive: 35.5 µM [inhibitor, single point] | –
8 | CSc1cccc(-c2nnc(NC(=O)c3ccc4c(c3)OCCO4)o2)c1 | inconclusive: 89.1 µM [inhibitor, partial curve, poor fit] | –
9 | C/C(NC(=O)c1ccccc1F)=C1\C(=O)C[C@@H]2[C@H]1C2(C)C | inconclusive: 35.5 µM [inhibitor, single point] | –
10 | Cc1ccc(-n2c(O)c(/C=C3/C(c4ccccc4)=Nc4ccccc43)c(=O)[nH]c2=O)cc1 | inconclusive: 39.8 µM [inhibitor, full curve, poor fit] | –
11 | CN(CCO)C(=O)c1cn(C2CCN(Cc3c(F)cccc3Cl)CC2)nn1 | inconclusive: 112 µM [inhibitor, single point] | –
12 | COc1ccccc1-c1cc2nc(-c3ccccc3)cc(N3CCN(C(=O)c4ccco4)CC3)n2n1 | inconclusive: 79.4 µM [inhibitor, single point] | –
13 | Cc1cc(C)nc(NC(c2ccccn2)c2cc(C)sc2NC(=O)c2ccco2)n1 (configuration not stated) | inconclusive: 39.8 µM [inhibitor, partial curve] | –
14 | O=C(NCc1ccccc1)C1Cc2c(-c3ccc(Cl)cc3)ccnc2O1 (configuration not stated) | inconclusive: 112 µM [inhibitor, partial curve, poor fit] | –
15 | O=C(CCc1nc2ccccc2s1)NCCc1cccc(F)c1 | – | inactive: -6.58%
16 | COC(=O)CCC(=O)OC1(C)C(=O)C=C2C=C(C3CC3)N(Cc3ccc4c(c3)OCO4)C=C2C1=O (configuration not stated) | inconclusive: 35.5 µM [inhibitor, partial curve, poor fit] | –
17 | Cc1noc([C@@H](C)NC(=O)c2cccs2)c1C(=O)O | inconclusive: 28.2 µM [inhibitor, partial curve, poor fit] | –
18 | CCCCN1C(=O)CC(Nc2ccc(CC)cc2)C1=O (configuration not stated) | inconclusive: 0.251 µM [inhibitor, full curve, poor fit] | –
19 | Cc1noc2c(NC3CCN(C)CC3)cc(-c3ccc(Cl)cc3)nc12 | – | inactive: -6.02% [at 176 µM]
20 | COc1ccc(OC)c2sc(NC(=O)CCSc3ccccc3)nc12 | – | inactive: 17.4%
21 | CCCCN(CCCNC(=S)NCCCc1cnc[nH]1)c1ccc(Br)cn1 | inconclusive: 44.7 µM [inhibitor, partial curve, poor fit] | –

Row | Structure (SMILES) | Potency | activity change, negative = inhibition
22 | Clc1ccccc1-c1nc(N2CCCC2)c2ccccc2n1 | inconclusive: 100 µM [inhibitor, single point] | –
23 | Cc1cc(C(=O)N(C)CC(=O)Nc2ccc(Cl)c(C(F)(F)F)c2)no1 | inconclusive: 11.2 µM [inhibitor, full curve, poor fit] | –
24 | CC(=O)N(C(C)=O)c1nc(-c2ccccc2)cn1/N=C/c1cccc([N+](=O)[O-])c1 | – | inconclusive: -33.3% [inhibitor]
25 | O=C(COc1ccccc1)Nc1ccc2n(c1=O)C[C@H]1C[C@@H]2CN(C(=O)c2ccccn2)C1 | inconclusive: 14.1 µM [inhibitor, full curve] | –
26 | Cn1c(=O)c2c(ncn2CCC(=O)Nc2ccc(Br)cc2F)n(C)c1=O | – | inactive: 6.87%
27 | O=C(/C=C/c1ccccc1)NC(=S)Nc1ccccc1 | inconclusive: 11.2 µM [inhibitor, full curve] | –
28 | Cc1cccc(C(=O)NC(Nc2ccc(C)cc2C)C(Cl)(Cl)Cl)c1 (configuration not stated) | inconclusive: 44.7 µM [inhibitor, partial curve, poor fit] | –
29 | c1ccc2nc(N3CCCC3)c(N3CCCCC3)nc2c1 | inconclusive: 126 µM [inhibitor, single point] | –
30 | Cc1ccccc1CNC(=O)c1ccc(Cn2c(SCc3cccc(F)c3)nc3cccnc32)cc1 | – | inactive: -16.5%
31 | CC(C)(C)c1ccc(NC(=O)c2ccc3c(c2)S(=O)(=O)c2ccccc2C3=O)cc1 | inconclusive: 112 µM [inhibitor, single point] | –
32 | CCc1ccc2c(c1)C(=O)c1ccccc1C2=O | – | inactive: -16%
33 | CCN(C(=O)CSc1nnc(Cn2nnc3ccccc32)o1)c1nc(C)cs1 | inconclusive: 35.5 µM [inhibitor, single point] | –
34 | COC1(c2ccccc2)NC(=S)NN=C1c1ccccc1 (configuration not stated) | inconclusive: 35.5 µM [inhibitor, partial curve, poor fit] | –
35 | O=C(O)C1CCCN(S(=O)(=O)c2ccc3c(c2)OCCO3)C1 (configuration not stated) | inconclusive: 35.5 µM [inhibitor, single point] | –
36 | CCNc1nc(=S)nc(NC(C)C)[nH]1 | inconclusive: 56.2 µM [inhibitor, single point] | –
37 | COc1ccc(Cn2ccc3nc(C)c(C(=O)N4CCN(c5ccccc5)CC4)cc3c2=O)cc1 | – | inactive: 11.1%
38 | CCCCn1nnnc1C(c1cccs1)N1CCN(C/C=C/c2ccccc2)CC1 (configuration not stated) | inconclusive: 31.6 µM [inhibitor, partial curve, poor fit] | –
39 | Cc1c(O)c(=O)ccn1Cc1ccccc1 | inconclusive: 0.398 µM [inhibitor, full curve, poor fit] | –
40 | CC(=O)Nc1ccccc1OCC(=O)NC(C)C | – | inactive: -1.84%
41 | CC(C)C1Cc2c(sc3c2c(=O)n(-c2ccccc2)c2n[nH]c(=S)n32)CO1 (configuration not stated) | inconclusive: 100 µM [inhibitor, single point] | –
42 | COc1ccc(N2C(=O)CC(Nc3ccc(F)cc3)C2=O)c([N+](=O)[O-])c1 (configuration not stated) | – | inactive: 0.124%

Reprinted, nos. 28 to 29
Row | Structure (SMILES) | Potency | activity change, negative = inhibition
28 | Cc1cccc(C(=O)NC(Nc2ccc(C)cc2C)C(Cl)(Cl)Cl)c1 (configuration not stated) | inconclusive: 44.7 µM [inhibitor, partial curve, poor fit] | –
29 | c1ccc2nc(N3CCCC3)c(N3CCCCC3)nc2c1 | inconclusive: 126 µM [inhibitor, single point] | –
